PMC3789761
These are yes or no findings as the source states them, for the method shown. For part of these data: A result given as binding can be weak or reduced; the word gives no strength. For part of these data: Binding seen in cells or lysates may run through a third protein.

T1: mouse DNase X on bone marrow-derived macrophages (BMDMs) of wild-type mice (mouse (endogenous in BMDMs)) (UniProt Q9D7J6)
T1 sequence: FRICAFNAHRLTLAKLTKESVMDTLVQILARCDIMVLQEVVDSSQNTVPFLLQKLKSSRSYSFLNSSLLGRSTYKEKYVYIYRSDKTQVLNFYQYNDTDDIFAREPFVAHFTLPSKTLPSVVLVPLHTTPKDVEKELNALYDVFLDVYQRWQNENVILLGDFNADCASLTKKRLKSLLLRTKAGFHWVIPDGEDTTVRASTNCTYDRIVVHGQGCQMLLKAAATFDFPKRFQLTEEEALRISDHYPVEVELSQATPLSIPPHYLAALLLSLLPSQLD

B1: native human DNase X from THP-1 cell lysate (protein, UniProt P49184 19-302)
chain: FRICAFNAQRLTLAKVAREQVMDTLVRILARCDIMVLQEVVDSSGSAIPLLLRELNRFDGSGPYSTLSSPQLGRSTYMETYVYFYRSHKTQVLSSYVYNDEDDVFAREPFVAQFSLPSNVLPSLVLVPLHTTPKAVEKELNALYDVFLEVSQHWQSKDVILLGDFNADCASLTKKRLDKLELRTEPGFHWVIADGEDTTVRASTHCTYDRVVLHGERCRSLLHTAAAFDFPTSFQLTEEEALNISDHYPVEVELKLSQAHSVQPLSLTVLLLLSLLSPQLCPAA

Tests used:
[1] = molecular target: T1, mouse DNase X on bone marrow-derived macrophages (BMDMs) of wild-type mice (mouse (endogenous in BMDMs)); experiment: binding of protein-coated latex beads to cells (fluorescence microscopy); rEtpE-C-coated 0.5 um fluorescent beads incubated with BMDMs from wild-type or DNase X-/- mice for 30 min at 4°C, washed, fixed without trypsin treatment; only the binder purified
[2] = molecular target: native EtpE (ECH1038) of E. chaffeensis (E. chaffeensis (Arkansas strain)); experiment: co-IP; THP-1 cells incubated with E. chaffeensis for 30 min, lysed in NP-40 lysis buffer; immunoprecipitated with anti-EtpE-C-bound protein A agarose or control mouse IgG; Western blot with anti-DNase X
[3] = molecular target: rECH0825, recombinant E. chaffeensis type IV secretion effector protein ECH0825 (E. chaffeensis); experiment: pull-down; His-tagged rEtpE-C bound to and renatured on Ni-affinity matrix; THP-1 cell lysate in NP-40 lysis buffer, 8 h at 4°C; eluted with 250 mM imidazole; Western blot with anti-DNase X; only the target purified
[4] = molecular target: rEtpE-C, recombinant C-terminal fragment of EtpE (ECH1038) with a C-terminal histidine tag (E. chaffeensis (Arkansas strain)); experiment: as above
[5] = molecular target: rECH0825, recombinant E. chaffeensis type IV secretion effector protein ECH0825 (E. chaffeensis); experiment: far-Western; 5 ug rEtpE-C and rECH0825 separated by SDS-PAGE, transferred to nitrocellulose and renatured with serial guanidinium-HCl treatment, incubated with THP-1 cell lysate in NP-40 lysis buffer; detected with anti-DNase X; only the target purified
[6] = molecular target: rEtpE-C, recombinant C-terminal fragment of EtpE (ECH1038) with a C-terminal histidine tag (E. chaffeensis (Arkansas strain)); experiment: as above

Molecule | binding [1] | binding [2] | binding [3] | binding [4] | binding [5] | binding [6]
rEtpE-C, recombinant C-terminal fragment of EtpE (ECH1038) with a C-terminal histidine tag (E. chaffeensis (Arkansas strain)) (domain or fragment) | binds |  |  |  |  | 
B1 |  | binds | no binding | binds | no binding | binds
